Results on ten compounds are retold here after article PMC8308784, “Novel Purine Chemotypes with Activity against Plasmodium falciparum and Trypanosoma cruzi” (Pharmaceuticals, 2021).

Several values for one entry are separate records, joined by “and”; a condition that tells them apart may be missing. Identical values can stand only once.

The data set relates to Vero cells. The data set is described as follows: Vero cell toxicity assay (alamarBlue). The class given is cell-based, green monkey. The following applies: selectivity index; for SI c (Vero cells, anti-P. falciparum assay): Vero TC50 versus P. falciparum IC50; for SI a (Vero cells, anti-T. cruzi assay): Vero TC50 versus anti-T. cruzi assay IC50; for SI b (Vero cells, antiamastigote assay): Vero TC50 versus antiamastigote IC50. As to the method: Human erythrocytes were purified from B+ Rh+ blood samples and maintained at 4 °C in incomplete RPMI medium. Vero (green monkey kidney epithelial cells), LLC-MK2 (Rhesus monkey kidney epithelial cells), and HepG2 (human liver epithelial cells) cultures were cultivated in DMEM supplemented with 1% penicillin–streptomycin (PS) and 10% heat-inactivated fetal bovine serum (FBS) at 37 °C, 5% CO2, and >95% humidity, as described in [31]. HepG2 cells were also supplemented with 10% non-essential amino acids. Vero and MK2 cells were passaged twice per week at 1:12 ratios, while HepG2 cells were passaged at a 1:8 ratio.
Vero and HepG2 cells were detached, centrifuged, and resuspended in DMEM without phenol red. Cell viability was checked upon cell counting with trypan blue staining. Then, Vero and HepG2 cells were diluted at a concentration of 5 × 10^5 and 3.2 × 10^5 cells per mL, respectively, before adding 100 µL per well to the 96-well plate. Each run contained its own negative (untreated cells) and positive (medium alone) controls. Plates were incubated at 37 °C for 4 days in the case of Vero, or 2 in the case of HepG2 cells. Assay readout was made by adding 50 µL per well of a PBS solution containing 10% alamarBlue reagent (Thermo Fisher Scientific); then, plates were incubated for another 6 h at 37 °C, before recording the fluorescence intensity with a Tecan Infinite M Nano+ reader (excitation: 530 nm, emission: 590 nm).
Absorbance values derived from the anti-T. cruzi assays and fluorescence values from the anti-P. falciparum and cell toxicity assays were normalized to the controls. In the primary screening at three fixed doses, the compounds’ inhibitory activity was expressed as a percentage of the negative control (100% parasitic growth). In dose–response assays, the compounds’ IC50 and TC50 values were determined with GraphPad Prism 7 software (version 7.00, 2016), using a non-linear regression analysis model defined by the following equation: Y=100 ÷(1+10^((LogIC50−X)×HillSlope))
On the technique in general: Alamar Blue is a resazurin reagent that responds to reducing activity.

Regarding `c1ccc(CCn2c(-c3ccccc3)nc3c(OCc4ccccc4)ncnc32)cc1` [Compound 6g], the “SI c (Vero cells, anti-P. falciparum assay)” value is < 10 and >7.86; the “SI a (Vero cells, anti-T. cruzi assay)” value was greater than 37.78; the “SI b (Vero cells, antiamastigote assay)” value is listed as greater than 7.63.

Turning to `O=C(Cn1ccnc1[N+](=O)[O-])NCc1ccccc1` [BNZ, benznidazole, reference compound], the “SI a (Vero cells, anti-T. cruzi assay)” value is reported as 121.80 and the “SI b (Vero cells, antiamastigote assay)” value is 115.11.

Consider `COc1cccc(-n2cc(COc3ncnc4c3ncn4C(C)(C)C)nn2)c1` [Compound 88], for which the “SI a (Vero cells, anti-T. cruzi assay)” value was greater than 14.15 and the “SI b (Vero cells, antiamastigote assay)” value is greater than 5.08.

On to `CC(C)(C)n1c(-c2ccccc2)nc2c(OCc3ccccc3)ncnc21` [Compound 6D], for which the “SI c (Vero cells, anti-P. falciparum assay)” value is < 10 and >7.94; the “SI a (Vero cells, anti-T. cruzi assay)” value is greater than 26.98.

Take `C#CCOc1ncnc2c1ncn2N1CCN(C)CC1` [Compound 93]: the “SI a (Vero cells, anti-T. cruzi assay)” value is greater than 1408.45 and the “SI b (Vero cells, antiamastigote assay)” value was greater than 9.17.

Turning to `c1ccc(-c2nc3c(OCc4cn(Cc5cscn5)nn4)ncnc3n2N2CCCCC2)cc1` [Compound 76], the “SI c (Vero cells, anti-P. falciparum assay)” value is recorded as greater than 27.37.

Take `CN1CCN(n2cnc3c(OCc4ccccc4)ncnc32)CC1` [Compound 29]: the “SI a (Vero cells, anti-T. cruzi assay)” value was > 205.8 and >205.76; the “SI b (Vero cells, antiamastigote assay)” value is given as greater than 6.36.

Regarding `COC(=O)c1ccccc1-n1cc(COc2ncnc3c2nc(-c2ccccc2)n3N(C)C)nn1` [Compound 34], the “SI a (Vero cells, anti-T. cruzi assay)” value is listed as greater than 1456.31.

Consider `COc1cccc(-n2cc(COc3ncnc4c3ncn4N3CCN(C)CC3)nn2)c1` [Compound 94], for which the “SI a (Vero cells, anti-T. cruzi assay)” value is greater than 63.16 and the “SI b (Vero cells, antiamastigote assay)” value is greater than 0.79.

For `COc1ccccc1-n1cc(COc2ncnc3c2nc(-c2ccccc2)n3N(C)C)nn1` [Compound 33], the “SI c (Vero cells, anti-P. falciparum assay)” value is on record as greater than 15.63.
